## Library screening results

By UniProt entry, the sequences of proteins in these tests, tags left out.
UniProt E9BF75, entry or part of it: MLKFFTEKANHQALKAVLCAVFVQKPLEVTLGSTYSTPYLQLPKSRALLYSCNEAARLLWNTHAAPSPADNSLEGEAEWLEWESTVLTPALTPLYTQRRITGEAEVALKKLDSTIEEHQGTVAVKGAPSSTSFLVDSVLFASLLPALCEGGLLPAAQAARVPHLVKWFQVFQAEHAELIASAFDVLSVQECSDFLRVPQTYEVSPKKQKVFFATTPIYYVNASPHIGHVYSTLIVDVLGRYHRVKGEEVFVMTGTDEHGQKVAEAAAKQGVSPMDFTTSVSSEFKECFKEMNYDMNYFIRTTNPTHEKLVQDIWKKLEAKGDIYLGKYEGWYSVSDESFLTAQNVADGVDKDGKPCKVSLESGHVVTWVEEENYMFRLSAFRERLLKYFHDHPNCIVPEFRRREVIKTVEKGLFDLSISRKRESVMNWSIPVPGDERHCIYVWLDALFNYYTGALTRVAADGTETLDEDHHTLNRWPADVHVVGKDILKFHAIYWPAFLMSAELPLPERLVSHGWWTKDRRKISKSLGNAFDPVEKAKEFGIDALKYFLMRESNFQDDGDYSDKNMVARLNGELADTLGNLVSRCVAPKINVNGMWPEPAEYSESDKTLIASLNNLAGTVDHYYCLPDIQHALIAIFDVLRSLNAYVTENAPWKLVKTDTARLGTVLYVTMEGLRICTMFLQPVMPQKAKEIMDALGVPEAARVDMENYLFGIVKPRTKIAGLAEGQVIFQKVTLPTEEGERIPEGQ

From ChEMBL document CHEMBL3988442, “University of Dundee, Small-Polar-MMV Screening Library” (2021).

A: 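Assay on Mycobacterium tuberculosis, filed only as a heat shock assay from Cornell; the read-out is not stated. The concentration is filed as 10 mM, unlikely as a test dose, so the dose is not known. Direction is inferred from retests: higher values go with stronger inhibition. Size under these conditions: about 69,000 compounds, about 930 of them at 50% or above in at least one test.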
B: 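Methionyl-tRNA synthetase (putative), Leishmania donovani (UniProt E9BF75). Primary screen of methionyl-tRNA synthetase; the read-out is not stated. The test concentration is not given. Values are per cent inhibition. About 68,000 compounds were tested under these conditions; 0.035% (about 24) showed 50% or more at least once.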
C: 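Whole-cell assay for inhibitors of Mycobacterium tuberculosis growth, labelled Cornell in the record; the read-out is not stated. The concentration is filed as 10 mM, unlikely as a test dose, so the dose is not known. Higher means stronger inhibition (inferred from two other growth screens of the library). About 53,000 compounds were tested under these conditions; 1.7% (about 900) showed 50% or more at least once.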

All values are in %.
The controls that fix the scale are not given in the record; negative values are as filed.
Compounds were drawn at random from those tested, without regard to their results.
A dash means the value is not listed here; it may have been measured.

Compound | A | B | C
CC(C)C(=O)Nc1cccc(OCC(=O)NCc2ccccc2F)c1 | -16.49 | 17.37 | 6.908
O=C(CCNS(=O)(=O)c1ccc2c(c1)CCCC2)NCc1ccoc1 | -2.284 | 14.63 | 30.78
CN1CCN(S(=O)(=O)c2ncn(C)c2Cl)CC1 | -34.66 | 7.609 | -24.3
CCCc1nc(N2CCCC(CCOC)C2)c2cnn(C)c2n1 (stereo not drawn) | -22.83 | -2.151 | -17.17
O=C(NCC(F)(F)F)NC1CCCc2c1cnn2CCO (stereo not drawn) | -3.148 | 12.68 | 25.58
O=C(O)C(F)(F)F.[H][C@]12CCN(S(=O)(=O)CC)CC[C@@]1([H])S(=O)(=O)CCN2CC(C)C | -25.27 | - | 16.21
CCCn1cc(C(=O)NCc2nnc(-c3ccc(C)nc3)o2)c(C)n1 | 20.14 | 7.874 | 5.343
Cc1ccccc1OCC1CCCN(c2cc(N)nc(N)n2)C1 (stereo not drawn) | 94.51 | 20.17 | 79.75
Cn1nnc2c1CCN(Cc1ccncc1)C2COCC1CC1 (stereo not drawn) | - | 7.19 | -
Cc1cc(NC(=O)CCCn2ccnc2C)nc(C(C)C)n1 | -2.544 | - | -
CC1CN(C)CCN1C(=O)Cc1cc(Cl)c2c(c1)OCCO2 (stereo not drawn) | -19.24 | 9.214 | -4.18
COc1ncc(C2(O)CCN(Cc3cc(F)cc(F)c3)CC2)c(OC)n1 | -15.75 | 9.647 | -
CCc1nnc(N2CCN(CCc3ccccc3)C(=O)C2)o1 | 2.706 | 7.013 | 5.886
[H][C@]12C[C@H](C(=O)NCC3CC3)N(C)[C@@]1([H])CN(Cc1ccco1)C2 | -2.896 | - | 11.69
COc1ccccc1CCNC(=O)N1CCCC(c2nncn2C)C1 (stereo not drawn) | 7.546 | 4.7 | -29.62
Cc1ccc(N2CC[C@@H]3O[C@@H](c4ccncn4)C[C@H]3C2)nn1 | - | 5.226 | -
CC(C)NC(=O)CC(C)NC(=O)N(C)Cc1cc(Cl)cn1C (stereo not drawn) | 8.976 | 5.319 | 36.27
COc1cccc(S(=O)(=O)NC(=O)COc2c(C)cccc2C)c1 | 7.421 | 17.41 | 38.91
COC1COC2(CCN(Cc3ccccc3Cl)CC2)C1 (stereo not drawn) | - | 6.224 | -
COC(=O)c1ccc(C2SCC(=O)Nc3c2cnn3C(C)(C)C)cc1 (stereo not drawn) | -17.2 | 13.44 | 17.4
Cc1nc2c(c(N(C)Cc3ccccc3-n3cccn3)n1)CCNCC2 | -13.97 | 13.04 | -15.08
O=C(NCC1CC1)C1CCC2(CCN(C(=O)c3cccnc3)CC2)O1 (stereo not drawn) | - | 8.013 | -
CCn1nc2c(cc1=O)CN(Cc1nc3ccccc3c(=O)[nH]1)CC2 | -4.618 | 10.34 | -20.8
Cc1cccc(CN2CC[C@@H]3O[C@@H](C(=O)N4CCN(C)CC4)C[C@@H]32)n1 | - | 9.89 | -
CC(C(=O)N1CCc2sccc2C1)N1CCC(N2CCCC2)CC1 (stereo not drawn) | -6.095 | 5.928 | 0.1206
CN1CCn2nc(-c3nc4ccccc4n3C)cc2C1 | 3.734 | 20.5 | -22.63
[H][C@@]12CCN(Cc3ccoc3)C[C@]1([H])OCCN(c1cccnc1)C2=O | -1.978 | - | 9.936
O=C(NCc1cc2ccccc2[nH]1)C1CCCN(C(=O)N2CCCC2)C1 (stereo not drawn) | 18.51 | 21.55 | -
Cc1ccc(NC(=O)NC(C)C(=O)N2CCS(=O)(=O)CC2)cc1 (stereo not drawn) | -19.67 | 15.58 | -
CCn1cc(CN2C[C@@H]3CCCN3C[C@H]2CCSC)c(C)n1 | - | 17.48 | -
CC(=O)c1cccc(-n2nc(C(C)=O)c(C(C)=O)c2C)c1 | -16.27 | 6.434 | 8.619
[H][C@@]12C[C@H](C(=O)N(C)C)[C@@]([H])(CN(S(=O)(=O)c3cccc(C)c3)C1)O2 | 6.301 | - | 17.73
[H][C@@]12C[C@@H](c3nc(C)no3)CN(Cc3ccoc3)[C@]1([H])CCO2 | 0.8359 | - | 16.04
CC(Cc1ccc(C(F)(F)F)cc1)C(=O)N1CCCS1(=O)=O (stereo not drawn) | -21.87 | 22.53 | 4.392
Cc1nc(NC(=O)c2c3c(nn2C2CCS(=O)(=O)C2)CCC3)sc1C (stereo not drawn) | -15.84 | 10.45 | 16.31
Cc1cccc(NC(=O)N2CCN(Cc3noc(C4CC4)n3)CC2)c1 | 41.92 | 16.91 | 3.966
CC(=O)NCC(=O)N1CCn2cc(CN3CCCCC3)nc2C1 | - | 8.795 | -
O=C(O)c1cc(-c2cn[nH]c2)cc(S(=O)(=O)N2CCSCC2)c1 | -18.82 | 11.5 | 13.5
COc1ccc(-c2cc(N)on2)cc1OC | 19.05 | 7.297 | 31.88
Cc1c(Br)cccc1C(=O)NC(C)CN1CCCC1=O (stereo not drawn) | -30.54 | 7.389 | -0.576
CCc1ccsc1C(=O)N1CCN(CC(C)(C)O)CC1 | -10.67 | 23.78 | -1.138
Cc1cnn(C2CN(Cc3noc(C)n3)C2)c1 | 1.101 | 6.534 | -
CNS(=O)(=O)c1cc(C(=O)N(C)Cc2sccc2C)c(C)o1 | -1.011 | 7.67 | -
CC(C)c1noc(CCC(=O)NC(C)c2ccccn2)n1 (stereo not drawn) | -10.12 | 22.95 | -
CC(C)c1nsc(N2CCC(OCCN3CCOCC3)CC2)n1 | -1.474 | 7.988 | -41.81
Cc1cc(S(C)(=O)=O)c(C)c(S(=O)(=O)N2CCCCCC2)c1 | -49.42 | 15.3 | 37.53
Cc1ccc(O)c(CN(CCCn2ccnc2)Cc2ccc(C)s2)c1.O=C(O)CC(O)(CC(=O)O)C(=O)O | 105.6 | - | -36.08
CC(C)NC(=O)c1cccc(Oc2ccc3nncn3n2)c1 | -12.29 | 4.839 | -31.43

Some entries from above, unchanged:

{"compound": "CC(C)c1noc(CCC(=O)NC(C)c2ccccn2)n1", "stereo": "stereo not drawn", "A": -10.12, "B": 22.95}
{"compound": "CC1CN(C)CCN1C(=O)Cc1cc(Cl)c2c(c1)OCCO2", "stereo": "stereo not drawn", "A": -19.24, "B": 9.214, "C": -4.18}
{"compound": "CC(=O)c1cccc(-n2nc(C(C)=O)c(C(C)=O)c2C)c1", "A": -16.27, "B": 6.434, "C": 8.619}
{"compound": "Cc1cc(NC(=O)CCCn2ccnc2C)nc(C(C)C)n1", "A": -2.544}
{"compound": "CC(=O)NCC(=O)N1CCn2cc(CN3CCCCC3)nc2C1", "B": 8.795}
{"compound": "CCc1nnc(N2CCN(CCc3ccccc3)C(=O)C2)o1", "A": 2.706, "B": 7.013, "C": 5.886}